Data reported in PMC5027278.
Like-named read-outs stand apart in the source and are kept apart here. No constants are given. Whether binding was seen depends on the method and setting. In cells and extracts the contact can be indirect. Some binding calls cover weakened binding; strength is not graded here. Each block holds one molecule with its values, some of them ahead of it.

Protein sequences, listed by entry. Tags and fused reporters are not part of them. Residues count along the entry.
UniProt P29317, residues 24-976: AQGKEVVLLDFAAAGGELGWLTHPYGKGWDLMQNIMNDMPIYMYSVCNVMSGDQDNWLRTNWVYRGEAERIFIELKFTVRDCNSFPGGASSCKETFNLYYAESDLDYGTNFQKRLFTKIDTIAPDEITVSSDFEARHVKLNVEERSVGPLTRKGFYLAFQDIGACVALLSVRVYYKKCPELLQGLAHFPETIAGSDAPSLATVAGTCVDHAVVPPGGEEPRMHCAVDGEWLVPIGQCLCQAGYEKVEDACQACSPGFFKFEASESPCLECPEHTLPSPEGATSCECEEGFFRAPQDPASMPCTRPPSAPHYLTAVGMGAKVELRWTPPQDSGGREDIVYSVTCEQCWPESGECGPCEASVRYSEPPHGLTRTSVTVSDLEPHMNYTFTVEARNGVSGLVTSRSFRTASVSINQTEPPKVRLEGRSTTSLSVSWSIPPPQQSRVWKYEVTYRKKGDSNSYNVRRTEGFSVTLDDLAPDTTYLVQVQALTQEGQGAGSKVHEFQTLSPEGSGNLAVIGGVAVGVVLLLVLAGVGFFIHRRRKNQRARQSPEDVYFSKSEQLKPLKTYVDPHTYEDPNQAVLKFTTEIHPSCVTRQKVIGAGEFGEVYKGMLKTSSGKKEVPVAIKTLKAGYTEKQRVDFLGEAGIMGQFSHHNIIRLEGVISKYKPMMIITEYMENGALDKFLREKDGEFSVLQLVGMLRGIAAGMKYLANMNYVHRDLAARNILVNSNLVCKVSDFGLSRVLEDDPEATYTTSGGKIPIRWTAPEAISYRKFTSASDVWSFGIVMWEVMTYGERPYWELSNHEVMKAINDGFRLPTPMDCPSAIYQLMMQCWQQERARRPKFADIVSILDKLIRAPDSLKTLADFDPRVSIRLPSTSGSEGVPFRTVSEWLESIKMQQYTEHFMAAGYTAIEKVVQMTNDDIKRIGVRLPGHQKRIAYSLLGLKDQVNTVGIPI

How the values were obtained:
VC-tagged EphA2 [1] = molecular target: VC-tagged EphA2 (UniProt P29317); test: split reporter; BiFC: VN and VC fragments of YFP (Venus) fused to the C termini of the two proteins, co-transfected into HEK293T (293) cells; cells fixed and analysed for fluorescence
VC-tagged EphA2 [2] = molecular target: VC-tagged EphA2 (UniProt P29317); test: as above; remark: listed apart in the source

- binding (VC-tagged EphA2 [1]): binds
Molecule: ErbB2-VN (from UniProt P04626 23-1255) (receptor)

- binding (VC-tagged EphA2 [2]): no binding
B1: Numb PTB adaptor protein (protein, UniProt P49757 1-651)
chain: MNKLRQSFRRKKDVYVPEASRPHQWQTDEEGVRTGKCSFPVKYLGHVEVDESRGMHICEDAVKRLKAERKFFKGFFGKTGKKAVKAVLWVSADGLRVVDEKTKDLIVDQTIEKVSFCAPDRNFDRAFSYICRDGTTRRWICHCFMAVKDTGERLSHAVGCAFAACLERKQKREKECGVTATFDASRTTFTREGSFRVTTATEQAEREEIMKQMQDAKKAETDKIVVGSSVAPGNTAPSPSSPTSPTSDATTSLEMNNPHAIPRRHAPIEQLARQGSFRGFPALSQKMSPFKRQLSLRINELPSTMQRKTDFPIKNAVPEVEGEAESISSLCSQITNAFSTPEDPFSSAPMTKPVTVVAPQSPTFQANGTDSAFHVLAKPAHTALAPVAMPVRETNPWAHAPDAANKEIAATCSGTEWGQSSGAASPGLFQAGHRRTPSEADRWLEEVSKSVRAQQPQASAAPLQPVLQPPPPTAISQPASPFQGNAFLTSQPVPVGVVPALQPAFVPAQSYPVANGMPYPAPNVPVVGITPSQMVANVFGTAGHPQAAHPHQSPSLVRQQTFPHYEASSATTSPFFKPPAQHLNGSAAFNGVDDGRLASADRHTEVPTGTCPVDPFEAQWAALENKSKQRTNPSPTNPFSSDLQKTFEIEL
